# Measurements taken from article PMC5608913.
# Protein sequences, listed by entry. Tags and fused reporters are not part of them.
# UniProt Q07157: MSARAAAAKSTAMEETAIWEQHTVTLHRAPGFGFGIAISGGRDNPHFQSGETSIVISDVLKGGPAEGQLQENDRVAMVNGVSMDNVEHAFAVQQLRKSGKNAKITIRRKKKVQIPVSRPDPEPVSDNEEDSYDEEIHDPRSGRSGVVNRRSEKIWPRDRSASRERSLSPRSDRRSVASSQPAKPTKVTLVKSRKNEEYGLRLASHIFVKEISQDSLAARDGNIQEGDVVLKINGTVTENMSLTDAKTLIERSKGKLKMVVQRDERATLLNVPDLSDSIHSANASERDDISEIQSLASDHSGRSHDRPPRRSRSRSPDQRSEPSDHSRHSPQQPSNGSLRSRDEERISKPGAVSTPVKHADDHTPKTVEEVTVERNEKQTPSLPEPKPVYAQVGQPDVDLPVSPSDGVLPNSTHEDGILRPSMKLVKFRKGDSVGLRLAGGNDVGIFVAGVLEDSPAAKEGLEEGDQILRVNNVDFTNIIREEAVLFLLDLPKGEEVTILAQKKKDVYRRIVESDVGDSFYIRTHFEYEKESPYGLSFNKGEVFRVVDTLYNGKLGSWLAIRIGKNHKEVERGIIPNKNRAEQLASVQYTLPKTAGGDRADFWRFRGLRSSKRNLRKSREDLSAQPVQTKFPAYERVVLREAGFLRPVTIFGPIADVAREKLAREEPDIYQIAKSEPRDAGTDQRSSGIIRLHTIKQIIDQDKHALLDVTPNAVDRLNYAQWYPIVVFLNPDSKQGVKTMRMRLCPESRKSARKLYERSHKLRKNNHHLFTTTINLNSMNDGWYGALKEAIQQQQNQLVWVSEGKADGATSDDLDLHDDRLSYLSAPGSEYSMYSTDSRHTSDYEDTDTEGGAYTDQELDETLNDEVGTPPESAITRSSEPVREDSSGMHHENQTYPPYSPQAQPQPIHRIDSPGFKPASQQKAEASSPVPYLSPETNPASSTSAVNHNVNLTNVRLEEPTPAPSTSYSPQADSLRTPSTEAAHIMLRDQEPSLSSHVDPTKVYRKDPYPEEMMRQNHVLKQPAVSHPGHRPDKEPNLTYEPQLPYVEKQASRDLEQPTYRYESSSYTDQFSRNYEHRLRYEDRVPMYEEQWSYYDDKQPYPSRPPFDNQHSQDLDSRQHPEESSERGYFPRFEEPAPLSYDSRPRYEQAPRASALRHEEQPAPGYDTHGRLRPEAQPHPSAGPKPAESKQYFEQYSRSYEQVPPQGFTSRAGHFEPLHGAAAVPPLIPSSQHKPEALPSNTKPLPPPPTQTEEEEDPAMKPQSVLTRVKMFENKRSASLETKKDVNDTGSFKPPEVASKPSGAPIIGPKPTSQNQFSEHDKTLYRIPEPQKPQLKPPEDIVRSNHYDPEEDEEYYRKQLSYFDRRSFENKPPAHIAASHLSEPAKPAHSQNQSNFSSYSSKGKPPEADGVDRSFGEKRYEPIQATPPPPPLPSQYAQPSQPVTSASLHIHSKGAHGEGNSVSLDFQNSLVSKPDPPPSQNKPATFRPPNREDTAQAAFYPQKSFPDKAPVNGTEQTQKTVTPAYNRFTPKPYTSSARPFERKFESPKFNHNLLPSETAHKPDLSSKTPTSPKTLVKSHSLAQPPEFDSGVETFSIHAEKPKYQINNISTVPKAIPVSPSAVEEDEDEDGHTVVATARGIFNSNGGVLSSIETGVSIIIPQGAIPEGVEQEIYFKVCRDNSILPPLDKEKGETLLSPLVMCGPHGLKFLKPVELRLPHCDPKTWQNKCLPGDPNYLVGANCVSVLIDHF
# These are yes or no findings as the source states them, for the method shown. Binding seen in cells or lysates may run through a third protein. Some binding calls cover weakened binding; strength is not graded here.
# Target: T1, endogenous Neph1 (human (endogenous in cultured human podocytes)) (UniProt Q96J84)
# T1 sequence: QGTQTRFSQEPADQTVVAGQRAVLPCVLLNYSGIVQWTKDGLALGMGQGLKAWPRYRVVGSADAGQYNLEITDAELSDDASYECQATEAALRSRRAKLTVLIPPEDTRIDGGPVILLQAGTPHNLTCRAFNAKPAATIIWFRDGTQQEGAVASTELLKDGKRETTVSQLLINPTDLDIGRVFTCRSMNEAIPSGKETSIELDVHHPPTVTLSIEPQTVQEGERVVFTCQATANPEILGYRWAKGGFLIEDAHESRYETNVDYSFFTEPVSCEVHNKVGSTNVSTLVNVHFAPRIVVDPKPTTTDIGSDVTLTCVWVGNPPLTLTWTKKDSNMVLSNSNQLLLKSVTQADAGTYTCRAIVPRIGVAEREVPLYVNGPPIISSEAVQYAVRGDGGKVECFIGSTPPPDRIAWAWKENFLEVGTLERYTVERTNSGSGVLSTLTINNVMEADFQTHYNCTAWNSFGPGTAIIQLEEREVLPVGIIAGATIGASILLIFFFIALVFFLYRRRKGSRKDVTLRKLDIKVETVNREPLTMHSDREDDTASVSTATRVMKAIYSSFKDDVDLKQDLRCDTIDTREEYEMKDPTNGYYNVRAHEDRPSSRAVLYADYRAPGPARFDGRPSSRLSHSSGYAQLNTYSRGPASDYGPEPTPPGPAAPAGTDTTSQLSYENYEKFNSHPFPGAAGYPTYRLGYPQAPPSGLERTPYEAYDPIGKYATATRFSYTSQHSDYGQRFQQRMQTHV
# Test: co-IP; cultured human podocytes without or with ISD (1 uM or 5 uM) for more than 24 h; RIPA lysate; immunoprecipitation with Neph1 antibody, blot with ZO-1 antibody
substance,measurement,value
endogenous ZO-1 (from UniProt Q07157 1-1748),binding,binds
